Reference: PubChem BioAssay AID743121 (NCATS, 2013)

- Screen: 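Partners whose loss is lethal together with topoisomerase I blockade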 (primary screen)
- Cells: MDA-MB-231 cells, a human breast cancer line
- Reagent: single siRNA against human genes, 20 nM siRNA (0.8 pmol per well)
- Time to read-out: 120 h (drug added 48 h after transfection, read 72 h later)
- Treatment: camptothecin 20 nM (about EC30) for 72 h; vehicle 0.1% DMSO in parallel plates
- Measured: 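Cell viability by ATP luminescence (CellTiter-Glo) as % of non-targeting siRNA wells, and the log2 ratio of viability without drug over viability with camptothecin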
- Direction: log2 vehicle/camptothecin viability: higher = stronger sensitisation to camptothecin
- Hit rule: 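Active genes have an RSA gene-level p-value below 0.001, computed from the ratios of their separate siRNAs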
This is one part, drawn at random, of about 26,000 reagents. In the full data, 167 (0.63%) were called active. 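Calls are per gene from RSA p-values that are not deposited; an individual active-marked siRNA can sensitise only weakly.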 A number with no mark means an inactive call. Not all columns of the deposit are shown.

{"Gene": "COL8A2", "PubChem SID": "SID164359190", "log2 vehicle/camptothecin viability": -0.45}
{"Gene": "COL8A2", "PubChem SID": "SID164359191", "log2 vehicle/camptothecin viability": -0.264}
{"Gene": "COL8A2", "PubChem SID": "SID164359192", "log2 vehicle/camptothecin viability": 0.989}
{"Gene": "COL8A2", "PubChem SID": "SID164359194", "log2 vehicle/camptothecin viability": -0.173}
{"Gene": "TNK1", "PubChem SID": "SID164399357", "log2 vehicle/camptothecin viability": -0.639}
{"Gene": "TNK1", "PubChem SID": "SID164399358", "log2 vehicle/camptothecin viability": -0.394}
{"Gene": "TNK1", "PubChem SID": "SID164399361", "log2 vehicle/camptothecin viability": -0.372}
{"Gene": "TNK1", "PubChem SID": "SID164399362", "log2 vehicle/camptothecin viability": -0.0562}
{"Gene": "WWP2", "PubChem SID": "SID164415264", "log2 vehicle/camptothecin viability": -0.0924}
{"Gene": "WWP2", "PubChem SID": "SID164415267", "log2 vehicle/camptothecin viability": -0.164}
{"Gene": "WWP2", "PubChem SID": "SID164415268", "log2 vehicle/camptothecin viability": -0.114}
{"Gene": "WWP2", "PubChem SID": "SID164415270", "log2 vehicle/camptothecin viability": -0.129}
{"Gene": "WWP2", "PubChem SID": "SID164415271", "log2 vehicle/camptothecin viability": -0.248}
{"Gene": "WWP2", "PubChem SID": "SID164415272", "log2 vehicle/camptothecin viability": -0.36}
{"Gene": "WWP2", "PubChem SID": "SID164415274", "log2 vehicle/camptothecin viability": -0.2}
{"Gene": "WWP2", "PubChem SID": "SID164415276", "log2 vehicle/camptothecin viability": -0.165}

The list goes on (3 carried over from the part before).
{"Gene": "WWP2", "PubChem SID": "SID164415272", "log2 vehicle/camptothecin viability": -0.36}
{"Gene": "WWP2", "PubChem SID": "SID164415274", "log2 vehicle/camptothecin viability": -0.2}
{"Gene": "WWP2", "PubChem SID": "SID164415276", "log2 vehicle/camptothecin viability": -0.165}
{"Gene": "GPR174", "PubChem SID": "SID164545968", "log2 vehicle/camptothecin viability": -0.121}
{"Gene": "GPR174", "PubChem SID": "SID164545969", "log2 vehicle/camptothecin viability": -0.0472}
{"Gene": "GPR174", "PubChem SID": "SID164545971", "log2 vehicle/camptothecin viability": -0.402}
{"Gene": "GPR174", "PubChem SID": "SID164545972", "log2 vehicle/camptothecin viability": -0.609}
{"Gene": "TAS2R10", "PubChem SID": "SID164470781", "log2 vehicle/camptothecin viability": -0.334}
{"Gene": "TAS2R10", "PubChem SID": "SID164470784", "log2 vehicle/camptothecin viability": -0.196}
{"Gene": "TAS2R10", "PubChem SID": "SID164470786", "log2 vehicle/camptothecin viability": -0.595}
{"Gene": "TAS2R10", "PubChem SID": "SID164470787", "log2 vehicle/camptothecin viability": -0.324}
